Holding throughout (assay): co-IP; HEK293 transfected with EGFP-PPM1D constructs; extracts with bensonase on GFP trap; immunoblot of endogenous proteins
The target of test [1] is T1, EGFP-PPM1D-A380 (catalytic domain of PPM1D) (human) (UniProt O15297).
T1 sequence: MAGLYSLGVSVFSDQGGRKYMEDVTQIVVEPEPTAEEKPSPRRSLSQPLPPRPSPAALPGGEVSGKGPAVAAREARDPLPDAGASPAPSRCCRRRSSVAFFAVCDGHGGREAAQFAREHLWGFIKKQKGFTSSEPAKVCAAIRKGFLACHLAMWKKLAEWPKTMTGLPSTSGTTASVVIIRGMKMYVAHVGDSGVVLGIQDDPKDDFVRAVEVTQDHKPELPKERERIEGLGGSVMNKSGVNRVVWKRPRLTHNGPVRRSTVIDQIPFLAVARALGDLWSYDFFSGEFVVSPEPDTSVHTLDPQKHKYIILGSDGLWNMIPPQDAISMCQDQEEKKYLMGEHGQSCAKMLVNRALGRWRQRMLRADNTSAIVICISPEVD

The target of test [2] is T2, EGFP-PPM1D (full length, wild type) (human) (UniProt O15297).
T2 sequence: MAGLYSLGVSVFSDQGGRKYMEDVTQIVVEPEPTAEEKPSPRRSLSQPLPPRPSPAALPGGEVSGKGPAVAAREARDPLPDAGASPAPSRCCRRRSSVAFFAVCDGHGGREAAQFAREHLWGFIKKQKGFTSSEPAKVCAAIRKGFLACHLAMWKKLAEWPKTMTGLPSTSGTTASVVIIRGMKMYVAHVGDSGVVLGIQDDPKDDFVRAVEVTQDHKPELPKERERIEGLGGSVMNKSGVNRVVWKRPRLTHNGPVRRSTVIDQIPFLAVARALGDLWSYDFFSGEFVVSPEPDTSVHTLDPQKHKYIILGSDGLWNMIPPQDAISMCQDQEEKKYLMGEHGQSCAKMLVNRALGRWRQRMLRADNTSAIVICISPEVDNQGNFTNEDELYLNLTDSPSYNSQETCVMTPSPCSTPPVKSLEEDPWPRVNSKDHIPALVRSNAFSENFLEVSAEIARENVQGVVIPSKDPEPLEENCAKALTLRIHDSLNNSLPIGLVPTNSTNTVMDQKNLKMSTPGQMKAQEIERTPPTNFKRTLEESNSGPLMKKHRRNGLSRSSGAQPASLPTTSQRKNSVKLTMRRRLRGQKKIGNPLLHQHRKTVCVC

Test [3] deals with T3, EGFP-PPM1D-CT (unstructured C-terminal region of PPM1D) (human) (UniProt O15297).
T3 sequence: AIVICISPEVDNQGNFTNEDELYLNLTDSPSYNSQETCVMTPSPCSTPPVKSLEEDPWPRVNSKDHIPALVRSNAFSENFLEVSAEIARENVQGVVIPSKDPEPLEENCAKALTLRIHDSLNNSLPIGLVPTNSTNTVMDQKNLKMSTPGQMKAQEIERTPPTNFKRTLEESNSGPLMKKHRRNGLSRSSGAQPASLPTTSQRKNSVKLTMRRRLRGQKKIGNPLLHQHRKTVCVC

These are yes or no findings as the source states them, for the method shown. Binding seen in cells or lysates may run through a third protein. Some results given as binding are weak or reduced against the parent protein; the word gives no strength. Tags and fused reporters may be left off the sequences shown.

For “telomeric repeat-binding factor 2 (TRF2), endogenous in HEK293 (from UniProt Q15554-3 1-542)”, the binding result in test [1] was “binds”; in test [2], “binds”; in test [3] it was “no binding”.

The record behind these values is paper PMC9943673.
